No constants are given. Whether binding was seen depends on the method and setting. Binding seen in cells or lysates may run through a third protein. Binding can be weak; no strength is given. Tags and fused reporters may be left off the sequences shown.
Target: T1, Flag-DIM-5 (N. crassa) (UniProt Q8X225)
T1 sequence: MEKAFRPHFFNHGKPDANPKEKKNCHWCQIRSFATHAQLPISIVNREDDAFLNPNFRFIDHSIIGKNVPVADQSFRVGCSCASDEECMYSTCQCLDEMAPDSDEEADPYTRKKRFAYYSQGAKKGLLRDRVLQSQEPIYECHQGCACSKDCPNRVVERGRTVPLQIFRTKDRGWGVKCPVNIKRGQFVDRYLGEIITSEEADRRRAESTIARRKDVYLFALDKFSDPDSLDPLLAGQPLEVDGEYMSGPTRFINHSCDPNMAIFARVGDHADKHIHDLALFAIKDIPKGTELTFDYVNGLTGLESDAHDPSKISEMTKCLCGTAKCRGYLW
Assay: co-IP; Flag antibody immunoprecipitation from N. crassa strains coexpressing Flag-DIM-5 and Myc-DCAF26 (wild type or mutant)

binding | Substance
binds | Myc-DCAF26R976A (N. crassa)
binds | Myc-His-DCAF26 (N. crassa)

— PMC2944796
